The assay addresses T1, EGFLAM (EGF-like Fibronectin type III and Laminin G domains), full-length recombinant human protein on the HuProt microarray (human) (UniProt Q63HQ2).
T1 sequence: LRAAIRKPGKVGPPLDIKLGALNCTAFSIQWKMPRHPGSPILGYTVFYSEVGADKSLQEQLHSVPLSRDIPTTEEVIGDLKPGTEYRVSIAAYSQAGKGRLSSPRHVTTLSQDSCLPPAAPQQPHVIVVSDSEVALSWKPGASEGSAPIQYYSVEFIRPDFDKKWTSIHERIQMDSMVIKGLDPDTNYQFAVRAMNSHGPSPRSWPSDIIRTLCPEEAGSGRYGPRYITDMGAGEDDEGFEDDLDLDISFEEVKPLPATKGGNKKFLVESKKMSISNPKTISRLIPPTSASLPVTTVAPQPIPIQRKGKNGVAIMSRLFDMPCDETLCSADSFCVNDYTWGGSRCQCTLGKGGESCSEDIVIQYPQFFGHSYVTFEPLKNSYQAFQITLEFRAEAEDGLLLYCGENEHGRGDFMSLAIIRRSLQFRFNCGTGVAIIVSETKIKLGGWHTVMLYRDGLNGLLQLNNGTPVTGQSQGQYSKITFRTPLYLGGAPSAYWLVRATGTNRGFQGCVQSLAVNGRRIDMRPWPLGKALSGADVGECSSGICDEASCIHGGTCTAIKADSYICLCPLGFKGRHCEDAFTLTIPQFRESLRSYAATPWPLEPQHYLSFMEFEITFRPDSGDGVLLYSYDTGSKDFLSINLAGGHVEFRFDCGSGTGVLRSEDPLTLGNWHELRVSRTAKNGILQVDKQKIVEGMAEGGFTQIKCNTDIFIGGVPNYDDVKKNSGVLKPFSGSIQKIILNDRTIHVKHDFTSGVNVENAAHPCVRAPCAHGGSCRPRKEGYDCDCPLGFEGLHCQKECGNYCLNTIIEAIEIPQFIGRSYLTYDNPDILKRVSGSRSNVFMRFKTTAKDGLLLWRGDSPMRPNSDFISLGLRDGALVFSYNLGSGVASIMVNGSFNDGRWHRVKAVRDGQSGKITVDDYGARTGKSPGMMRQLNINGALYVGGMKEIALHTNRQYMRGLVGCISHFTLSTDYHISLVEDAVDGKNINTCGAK
Description: HuProt human proteome microarray, biotinylated rRv3364c, streptavidin Alexa Fluor 532.

Results are given in words; binding and its absence hold for the method and conditions named. Some results given as binding are weak or reduced against the parent protein; the word gives no strength. Tags and fused reporters may be left off the sequences shown.

B1: recombinant Rv3364c (rRv3364c) protein, N-terminal 6xHis tag (protein)
chain: MKARLPDSPLDWLVSKFAREVPGVAHALLVSVDGLPVAASEHLPRERADQLAAVTSGLASLAGGAAQLFDGGQVLQSVVEMQNGYLLLMQVGDGSALAALAATGCDIGQIGYEMAILVERVGGVVQSCRR
For B1, the binding entry is given as “binds”.

These data come from patent US20230203107A1, “PEPTIDE FOR TREATING SEPSIS DERIVED FROM RV3364C PROTEIN OF MYCOBACTERIUM TUBERCULOSIS” (priority 2021, published 2023).
